From patent US20230277625A1
Where a chain is given by its changes, count along the chain named. Results are given in words; binding and its absence hold for the method and conditions named. Some results given as binding are weak or reduced against the parent protein; the word gives no strength.

T1: Mouse IL-18Rα ectodomain (amino acids 19-329), biotinylated (mouse) (UniProt Q61098)
T1 sequence (chain, biotin on the AviTag (BirA ligase)): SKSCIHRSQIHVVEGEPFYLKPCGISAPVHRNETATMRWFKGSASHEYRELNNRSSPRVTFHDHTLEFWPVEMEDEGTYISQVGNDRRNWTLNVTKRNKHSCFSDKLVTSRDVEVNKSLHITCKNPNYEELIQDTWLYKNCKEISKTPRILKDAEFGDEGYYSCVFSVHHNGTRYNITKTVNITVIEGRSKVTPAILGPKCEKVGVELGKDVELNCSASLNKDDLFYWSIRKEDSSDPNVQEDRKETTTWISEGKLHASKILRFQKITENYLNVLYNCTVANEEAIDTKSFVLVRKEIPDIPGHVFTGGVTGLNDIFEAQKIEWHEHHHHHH

T2: Mouse IL-18BP (amino acids 31-194), biotinylated (mouse) (UniProt Q9Z0M9)
T2 sequence (chain, biotin on the AviTag (BirA ligase)): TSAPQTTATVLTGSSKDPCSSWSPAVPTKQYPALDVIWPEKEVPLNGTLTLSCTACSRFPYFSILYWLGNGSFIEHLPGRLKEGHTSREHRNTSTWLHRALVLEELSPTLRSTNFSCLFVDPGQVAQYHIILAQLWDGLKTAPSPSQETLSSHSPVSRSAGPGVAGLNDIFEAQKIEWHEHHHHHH

B1: Mouse Interleukin-18 (mature form), wild type (ligand)
chain: NFGRLHCTTAVIRNINDQVLFVDKRQPVFEDMTDIDQSASEPQTRLIIYMYKDSEVRGLAVTLSVKDSKMSTLSCKNKIISFEEMDPPENIDDIQSDLIFFQKRVPGHNKMEFESSLYEGHFLACQKEDDAFKLILKKKDENGDKSVMFTLTNLHQS
B2: SEQ ID NO: 70 (murine DR-IL-18 variant mA7) (ligand)
chain: B1 chain with N1Y, M50A, K52G, S54N, E55R, L59K
B3: SEQ ID NO: 67 (murine DR-IL-18 variant mB1) (ligand)
chain: B1 chain with N1H, M50G, K52A, E55D, V56A, G58A, L59K, R104S, L151V
B4: SEQ ID NO: 62 (murine DR-IL-18 variant mC1) (ligand)
chain: B1 chain with M50A, K52V, S54R, E55R, V56L, L59K, R104K
B5: SEQ ID NO: 64 (murine DR-IL-18 variant mE8) (ligand)
chain: B1 chain with M50V, K52T, S54G, E55R, V56R, L59K, R104K, N109D
B6: SEQ ID NO: 60 (murine DR-IL-18 variant mCS1) (ligand)
chain: B1 chain with M50G, K52A, E55R, L59K
B7: SEQ ID NO: 61 (murine DR-IL-18 variant mCS2) (ligand)
chain: B1 chain with N1H, M50A, K52G, E55R, V56A, L59K

target: T1, Mouse IL-18Rα ectodomain (amino acids 19-329), biotinylated (mouse); test: on-yeast binding isotherm (flow cytometry), FIG. 11A

Q: Which binding does the source give for B1 here?
A: Its binding is “binds”.

Q: For B2, which binding is on record?
A: The binding was “binds”.

Q: Which binding does the source give for B3 here?
A: The binding was “binds”.

Q: How did the binding turn out when B4 was run?
A: The binding was “binds”.

Q: B5 was tested. Which binding did it give?
A: The binding was “binds”.

Q: Which binding does the source give for B6 here?
A: Its binding is “binds”.

Q: Which binding does the source give for B7 here?
A: Its binding is “binds”.

target: T2, Mouse IL-18BP (amino acids 31-194), biotinylated (mouse); test: SPR (Biacore T100); SPR; no binding detected

Q: Which binding does the source give for B5 here?
A: Its binding is “no binding (tested: 30 µM used for ratio calculations)”.

target: T1, Mouse IL-18Rα ectodomain (amino acids 19-329), biotinylated (mouse); test: yeast binding isotherms and SPR; members per FIG. 11A legend

Q: How did the binding turn out when B2 was run?
A: The binding was “binds”.

Q: Which binding does the source give for B3 here?
A: Its binding is “binds”.

Q: With B4 as the binder, how does the binding read?
A: The binding was “binds”.

Q: How did the binding turn out when B5 was run?
A: The binding was “binds”.

Q: B6 was tested. Which binding did it give?
A: Its binding is “binds”.

Q: Which binding does the source give for B7 here?
A: The binding was “binds”.

target: T2, Mouse IL-18BP (amino acids 31-194), biotinylated (mouse); test: on-yeast binding isotherm (flow cytometry): yeast-displayed murine IL-18 variant titrated with mIL-18BP, % max

Q: How did the binding turn out when B1 was run?
A: Its binding is “binds”.

Q: How did the binding turn out when B5 was run?
A: The binding was “no binding (tested: 10^-6 M)”.

target: T1, Mouse IL-18Rα ectodomain (amino acids 19-329), biotinylated (mouse); test: on-yeast binding isotherm (flow cytometry): yeast-displayed murine IL-18 variant titrated with mIL-18Rα, % max

Q: For B1, which binding is on record?
A: Its binding is “binds”.

Q: B2 was tested. Which binding did it give?
A: The binding was “binds”.

Q: B3 was tested. Which binding did it give?
A: Its binding is “binds”.

Q: How did the binding turn out when B4 was run?
A: The binding was “binds”.

Q: B5 was tested. Which binding did it give?
A: Its binding is “binds”.

Q: With B6 as the binder, how does the binding read?
A: Its binding is “binds”.

Q: B7 was tested. Which binding did it give?
A: The binding was “binds”.

target: T2, Mouse IL-18BP (amino acids 31-194), biotinylated (mouse); test: on-yeast binding isotherm (flow cytometry); on-yeast isotherm; no binding detected

Q: How did the binding turn out when B5 was run?
A: Its binding is “no binding (tested: 10 µM used for ratio calculations)”.
